Data: article doi:10.1101/2022.12.09.519731 (bioRxiv, 2022)
Like-named read-outs stand apart in the source and are kept apart here. These are yes or no findings as the source states them, for the method shown. For part of these data: Binding can be weak; no strength is given. Sequences can lack the tags named with a protein.

T1: His6-MglB (Myxococcus xanthus) (UniProt Q1DB03)
T1 sequence: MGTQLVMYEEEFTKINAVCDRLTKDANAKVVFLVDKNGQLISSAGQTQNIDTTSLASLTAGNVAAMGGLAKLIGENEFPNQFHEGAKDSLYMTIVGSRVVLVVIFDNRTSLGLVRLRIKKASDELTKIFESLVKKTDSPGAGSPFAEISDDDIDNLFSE

T2: His6-MglB^KRK (Myxococcus xanthus) (UniProt Q1DB03)
T2 sequence: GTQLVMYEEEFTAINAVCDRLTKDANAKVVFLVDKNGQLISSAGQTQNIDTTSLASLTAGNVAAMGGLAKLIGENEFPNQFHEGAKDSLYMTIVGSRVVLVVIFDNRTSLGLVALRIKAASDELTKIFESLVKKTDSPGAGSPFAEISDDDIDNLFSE


How the values were obtained:
Test in all cases: pull-down
[1] = target: T1, His6-MglB (Myxococcus xanthus)
[2] = target: T2, His6-MglB^KRK (Myxococcus xanthus)
[3] = target: T1, His6-MglB (Myxococcus xanthus); remark: listed apart in the source
[4] = target: Strep-MglC (Myxococcus xanthus)
[5] = target: Strep-MglC (Myxococcus xanthus); remark: listed apart in the source

| Molecule | binding [1] | binding [2] | binding [3] | binding [4] | binding [5] |
| --- | --- | --- | --- | --- | --- |
| Strep-MglC (Myxococcus xanthus) | binds | no binding (tested: 10µM) | binds |  |  |
| His6-MglB (natural protein, Myxococcus xanthus) MGTQLVMYEEEFTKINAVCDRLTKDANAKVVFLVDKNGQLISSAGQTQNIDTTSLASLTAGNVAAMGGLAKLIGENEFPNQFHEGAKDSLYMTIVGSRVVLVVIFDNRTSLGLVRLRIKKASDELTKIFESLVKKTDSPGAGSPFAEISDDDIDNLFSE |  |  |  | binds | binds |
| MglA-His6 (protein, UniProt Q1DB04 1-195) MSFINYSSREINCKIVYYGPGLCGKTTNLQYIYNKTAAETKGKLISLSTETDRTLFFDFLPLSLGEIRGFKTRFHLYTVPGQVFYDASRKLILKGVDGVVFVADSQIERMEANMESLENLRINLAEQGYDLNKIPYVIQYNKRDLPNAVTVEEMRKALNHRNIPEYQAVAPTGVGVFDTLKAVAKLVLTELKKGG |  |  |  |  | no binding (tested: 10µM) |
